These are yes or no findings as the source states them, for the method shown. Binding seen in cells or lysates may run through a third protein. Here binding means that the protein was enriched with, or labelled near, the bait; the list need not be complete. Sequences can lack the tags named with a protein.

Binding data for two molecules are collected here from article doi:10.1101/2024.11.07.622557.

The test deals with T1, HHLA2-HA (UniProt Q9UM44).
T1 sequence (chain, extensively glycosylated (smeared band on western blots); sites not stated): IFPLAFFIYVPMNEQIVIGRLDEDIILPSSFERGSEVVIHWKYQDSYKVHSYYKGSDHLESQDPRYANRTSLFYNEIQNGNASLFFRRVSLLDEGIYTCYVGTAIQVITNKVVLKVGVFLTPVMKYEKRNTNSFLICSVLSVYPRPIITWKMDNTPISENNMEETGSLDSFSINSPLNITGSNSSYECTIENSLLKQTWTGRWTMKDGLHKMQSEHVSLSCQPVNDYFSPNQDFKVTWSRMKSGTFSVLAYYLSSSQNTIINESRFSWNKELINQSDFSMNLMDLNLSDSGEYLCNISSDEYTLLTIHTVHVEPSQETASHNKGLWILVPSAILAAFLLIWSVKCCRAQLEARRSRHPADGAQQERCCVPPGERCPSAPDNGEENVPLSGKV
Kind of test: affinity purification with mass spectrometry.

Consider “c-Met (from UniProt P08581 25-1390) (receptor)”, for which the binding result is “binds”.

B1: STT3A (enzyme, UniProt P46977 1-705)
chain: MTKFGFLRLSYEKQDTLLKLLILSMAAVLSFSTRLFAVLRFESVIHEFDPYFNYRTTRFLAEEGFYKFHNWFDDRAWYPLGRIIGGTIYPGLMITSAAIYHVLHFFHITIDIRNVCVFLAPLFSSFTTIVTYHLTKELKDAGAGLLAAAMIAVVPGYISRSVAGSYDNEGIAIFCMLLTYYMWIKAVKTGSICWAAKCALAYFYMVSSWGGYVFLINLIPLHVLVLMLTGRFSHRIYVAYCTVYCLGTILSMQISFVGFQPVLSSEHMAAFGVFGLCQIHAFVDYLRSKLNPQQFEVLFRSVISLVGFVLLTVGALLMLTGKISPWTGRFYSLLDPSYAKNNIPIIASVSEHQPTTWSSYYFDLQLLVFMFPVGLYYCFSNLSDARIFIIMYGVTSMYFSAVMVRLMLVLAPVMCILSGIGVSQVLSTYMKNLDISRPDKKSKKQQDSTYPIKNEVASGMILVMAFFLITYTFHSTWVTSEAYSSPSIVLSARGGDGSRIIFDDFREAYYWLRHNTPEDAKVMSWWDYGYQITAMANRTILVDNNTWNNTHISRVGQAMASTEEKAYEIMRELDVSYVLVIFGGLTGYSSDDINKFLWMVRIGGSTDTGKHIKENDYYTPTGEFRVDREGSPVLLNCLMYKMCYYRFGQVYTEAKRPPGFDRVRNAEIGNKDFELDVLEEAYTTEHWLVRIYKVKDLDNRGLSRT
Take B1: the binding result was “binds”.
